These are yes or no findings as the source states them, for the method shown. In cells and extracts the contact can be indirect. These calls come from enrichment with a bait or labelling near it, and not all partners need be listed.
Target: complement factor H (FH) (human (endogenous in hTERT-RPE1)) (UniProt P08603)
Assay: affinity purification with mass spectrometry; hTERT-RPE1 lysates (0.5% NP40, TBS, after 48 h in serum free medium) with anti-FH antibody clone C18/3 or control IgG, 1 h 4 °C, Protein G PLUS-Agarose overnight 4 °C, acidic elution, tryptic digest, LC-MS/MS; enrichment over IgG control, FDR < 0.05

Protein sequences, listed by entry. Tags and fused reporters are not part of them. Residues count along the entry.
UniProt P08603, residues 19-1231: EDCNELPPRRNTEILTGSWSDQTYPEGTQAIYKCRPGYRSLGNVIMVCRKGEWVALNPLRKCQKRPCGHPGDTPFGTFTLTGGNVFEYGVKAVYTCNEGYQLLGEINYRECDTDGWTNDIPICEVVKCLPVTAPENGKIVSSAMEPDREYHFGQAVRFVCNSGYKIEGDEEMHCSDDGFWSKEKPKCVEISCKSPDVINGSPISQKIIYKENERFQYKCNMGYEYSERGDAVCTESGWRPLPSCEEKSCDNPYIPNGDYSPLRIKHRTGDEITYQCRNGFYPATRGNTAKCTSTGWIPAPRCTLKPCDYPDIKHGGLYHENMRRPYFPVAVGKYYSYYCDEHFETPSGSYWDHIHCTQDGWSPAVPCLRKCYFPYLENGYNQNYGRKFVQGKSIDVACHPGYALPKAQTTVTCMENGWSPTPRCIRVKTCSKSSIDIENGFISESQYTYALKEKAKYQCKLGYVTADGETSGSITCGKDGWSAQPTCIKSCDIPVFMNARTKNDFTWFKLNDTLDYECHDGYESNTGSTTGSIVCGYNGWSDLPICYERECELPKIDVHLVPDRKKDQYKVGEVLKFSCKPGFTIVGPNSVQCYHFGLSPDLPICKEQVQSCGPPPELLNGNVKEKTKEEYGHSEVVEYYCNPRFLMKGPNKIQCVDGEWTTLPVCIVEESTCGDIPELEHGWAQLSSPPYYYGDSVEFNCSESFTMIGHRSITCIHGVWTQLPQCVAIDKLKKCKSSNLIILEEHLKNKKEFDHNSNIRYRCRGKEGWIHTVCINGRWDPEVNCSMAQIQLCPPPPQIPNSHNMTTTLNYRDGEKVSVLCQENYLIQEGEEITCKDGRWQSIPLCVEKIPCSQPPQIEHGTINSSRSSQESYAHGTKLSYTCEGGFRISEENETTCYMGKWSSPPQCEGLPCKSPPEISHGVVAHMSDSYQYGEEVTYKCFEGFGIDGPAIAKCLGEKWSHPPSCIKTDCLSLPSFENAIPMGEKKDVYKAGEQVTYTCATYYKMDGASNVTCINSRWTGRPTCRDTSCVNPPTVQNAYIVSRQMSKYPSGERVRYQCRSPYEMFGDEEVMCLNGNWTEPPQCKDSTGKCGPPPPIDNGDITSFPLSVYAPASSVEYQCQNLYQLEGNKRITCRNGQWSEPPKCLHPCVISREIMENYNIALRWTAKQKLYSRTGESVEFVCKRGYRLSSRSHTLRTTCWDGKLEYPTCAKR
UniProt P16220: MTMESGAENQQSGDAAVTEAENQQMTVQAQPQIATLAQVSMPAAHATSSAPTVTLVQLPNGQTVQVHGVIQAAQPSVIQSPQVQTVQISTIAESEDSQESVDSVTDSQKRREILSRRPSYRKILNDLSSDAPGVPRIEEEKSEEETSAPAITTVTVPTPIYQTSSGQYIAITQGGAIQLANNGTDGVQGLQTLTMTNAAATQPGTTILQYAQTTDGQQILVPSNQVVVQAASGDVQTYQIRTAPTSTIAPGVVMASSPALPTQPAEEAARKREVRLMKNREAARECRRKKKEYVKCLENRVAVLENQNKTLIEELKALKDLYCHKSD
UniProt O00716: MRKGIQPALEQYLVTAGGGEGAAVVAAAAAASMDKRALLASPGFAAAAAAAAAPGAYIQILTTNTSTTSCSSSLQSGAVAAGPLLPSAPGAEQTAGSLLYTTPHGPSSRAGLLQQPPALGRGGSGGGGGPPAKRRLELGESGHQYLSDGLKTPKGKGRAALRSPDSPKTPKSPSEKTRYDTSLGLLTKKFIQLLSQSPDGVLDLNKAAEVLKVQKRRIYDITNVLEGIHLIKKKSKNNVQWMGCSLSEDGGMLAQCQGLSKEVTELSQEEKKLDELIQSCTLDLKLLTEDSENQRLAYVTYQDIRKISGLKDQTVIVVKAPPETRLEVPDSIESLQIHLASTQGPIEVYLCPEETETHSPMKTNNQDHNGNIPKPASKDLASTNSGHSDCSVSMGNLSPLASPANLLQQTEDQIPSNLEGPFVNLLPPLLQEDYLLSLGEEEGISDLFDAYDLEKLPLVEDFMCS
UniProt Q16254: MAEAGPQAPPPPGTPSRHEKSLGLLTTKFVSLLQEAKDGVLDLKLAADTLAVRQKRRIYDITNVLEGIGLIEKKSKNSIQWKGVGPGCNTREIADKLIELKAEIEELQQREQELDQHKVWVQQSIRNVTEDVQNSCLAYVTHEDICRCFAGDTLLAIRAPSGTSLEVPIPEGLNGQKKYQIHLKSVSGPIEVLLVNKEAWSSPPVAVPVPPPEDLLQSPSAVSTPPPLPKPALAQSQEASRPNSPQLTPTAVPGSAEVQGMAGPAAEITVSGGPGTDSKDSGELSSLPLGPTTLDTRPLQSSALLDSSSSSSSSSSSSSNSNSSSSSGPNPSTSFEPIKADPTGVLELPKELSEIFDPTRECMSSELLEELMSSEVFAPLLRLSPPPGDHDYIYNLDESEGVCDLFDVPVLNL
UniProt Q14186: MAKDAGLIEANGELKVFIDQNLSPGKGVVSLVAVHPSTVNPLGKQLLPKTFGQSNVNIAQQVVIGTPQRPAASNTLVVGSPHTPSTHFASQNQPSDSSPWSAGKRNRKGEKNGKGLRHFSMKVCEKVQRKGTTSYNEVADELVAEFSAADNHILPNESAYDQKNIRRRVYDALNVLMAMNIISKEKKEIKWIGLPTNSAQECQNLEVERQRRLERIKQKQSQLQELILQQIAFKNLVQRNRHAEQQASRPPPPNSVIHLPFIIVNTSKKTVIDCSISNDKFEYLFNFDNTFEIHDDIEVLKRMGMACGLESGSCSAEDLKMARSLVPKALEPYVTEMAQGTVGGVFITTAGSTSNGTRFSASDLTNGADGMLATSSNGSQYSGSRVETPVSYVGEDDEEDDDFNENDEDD

| Substance | binding |
| --- | --- |
| CREB1 (from UniProt P16220 1-327) | binds |
| E2F3 (from UniProt O00716 1-465) | binds |
| E2F4 (from UniProt Q16254 1-413) | binds |
| TFDP1 (from UniProt Q14186 1-410) | binds |
